These are yes or no findings as the source states them, for the method shown. Some results given as binding are weak or reduced against the parent protein; the word gives no strength.
T1: peptide representing the neo-epitope of the cell membrane-bound ADAM17-cleavage product of human AREG (human)
T1 sequence (peptide): THSMIDSSLSKI


Assays:
[1] = biological target: T1, peptide representing the neo-epitope of the cell membrane-bound ADAM17-cleavage product of human AREG (human); assay: ELISA, plate coated with 5 µg/mL cleaved-AREG peptide, antibody 0.001-1 µg/mL
[2] = biological target: T1, peptide representing the neo-epitope of the cell membrane-bound ADAM17-cleavage product of human AREG (human); assay: ELISA on peptides, rabbit IgG

| Binder | binding [1] | binding [2] |
| --- | --- | --- |
| GMF-1A3 rabbit monoclonal IgG antibody (antibody, V domains shown, also called anti-cleaved-AREG 1A3 antibody; unconjugated 1A3) VH: QSVKESEGRLVTPGTPLRLTCTVAGYSLSRYHMCWVRQAPGKGLEWIGMIGGSGRTDYASWAKGRFTISKTSTTVDLKITSPTTEDTATYFCSTVYTDSDGDFWGPGTLVTVSS VL: ELDMTQTPSSKSVPVGGTVTINCQASESVYSNDRLAWFQQKPGQPPKLLIYYASTLASGVPSRFKGSGSGTQFTLTISDLECADAATYYCQSCYDMSSYGVAFGGGTELEIL | binds | binds |
| GMF-3E4 rabbit monoclonal IgG antibody (antibody, V domains shown) VH: QSVKESEGRLVTPGTPLTLTCTVSGFSLSDYWMSWVRQAPGKGLEWIGIAGYSDNTYYASRAKGRFTISKTSTTVVLKITRPTTEDTATYFCVRDLYGVYSSGTTLWGPGTLVTVSS VL: ELVMTQTPSPVSAAVGGTVTISCQSSQSVYNNNRLAWFQQKPGQPPKLLIYYASTLASGVSSRFKGSGSGTQFTLIISDVVCDDAATYYCQGYYSGGITGFGGGTEVVVK | – | binds |
